Test results from PubChem BioAssay AID743255 (National Center for Advancing Translational Sciences (NCATS), 2014).
Out of some 390,000 compounds screened, about 910 (0.23%) were called active. Inconclusive results, whose numbers are uncertain, are shown with a selection of clear calls. The call rests on the fitted dose curve; in most records, active means well fitted inhibition curve with a large enough effect; inconclusive means small, poorly fitted or top-dose-only effect; inactive means no such curve, though single readings can be large or run the other way. A potency beside an inconclusive call is a rough fit, not a confirmed value.

The chains behind the UniProt entries cited, without tags or fusion partners. Where a name states a change or a piece, a line headed by the entry shows the natural chain unless it says otherwise.
UniProt O94782: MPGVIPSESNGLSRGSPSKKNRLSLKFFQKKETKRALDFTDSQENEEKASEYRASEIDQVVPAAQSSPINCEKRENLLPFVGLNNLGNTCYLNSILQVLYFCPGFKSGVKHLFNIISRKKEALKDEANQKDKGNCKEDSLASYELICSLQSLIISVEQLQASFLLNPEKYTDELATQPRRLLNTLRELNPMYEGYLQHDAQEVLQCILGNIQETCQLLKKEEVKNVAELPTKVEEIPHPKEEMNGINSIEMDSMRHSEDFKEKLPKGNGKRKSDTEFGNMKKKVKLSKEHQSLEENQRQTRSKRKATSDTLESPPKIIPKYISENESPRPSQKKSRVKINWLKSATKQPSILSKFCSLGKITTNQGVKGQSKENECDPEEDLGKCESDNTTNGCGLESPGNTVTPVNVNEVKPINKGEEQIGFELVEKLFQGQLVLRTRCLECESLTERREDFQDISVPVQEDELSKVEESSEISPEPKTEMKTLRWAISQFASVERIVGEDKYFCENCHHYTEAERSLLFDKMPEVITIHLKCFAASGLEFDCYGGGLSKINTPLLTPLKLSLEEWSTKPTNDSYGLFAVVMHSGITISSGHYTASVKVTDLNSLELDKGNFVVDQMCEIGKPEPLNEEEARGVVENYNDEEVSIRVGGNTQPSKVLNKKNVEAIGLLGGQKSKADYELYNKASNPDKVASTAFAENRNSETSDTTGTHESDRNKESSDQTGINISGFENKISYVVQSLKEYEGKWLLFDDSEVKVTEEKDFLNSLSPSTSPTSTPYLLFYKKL

What follows are molecules tested against Ubiquitin carboxyl-terminal hydrolase 1 (Homo sapiens) (UniProt O94782) (assay: Inhibitors of USP1/UAF1: Primary Screen). Details: recombinant USP1/UAF1, Ub-Rhodamine cleavage fluorescence; activity change, negative = inhibition: at 57.1 µM (top of the series).
Procedure, shortened: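 In this screen, compounds sit with the deubiquitinase complex (1nM) for 15 min at room temperature before Ub-Rho is added at 150nM final. Fluorescence rise is then followed for 6 reads every 60 seconds.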
Further: nearly all actives have a fitted effect of over 60% in size.
On the % scale 0 is the no-effect control and ±100 the full control effect; potency means the concentration at half of the fitted maximal effect.

Question: With `COc1ccc2c(c1)cc(CNc1ccc(OC)c(OC)c1)c(=O)n2CC(=O)Nc1ccccc1C` as the molecule, how does the Potency read?
Answer: The Potency was inconclusive: 39.8 µM [inhibitor, partial curve].

Question: `Cc1ccc(Cn2nnc3c(=O)[nH]c(C4CCN(C(=O)Cc5ccccc5F)CC4)nc32)cc1` was tested. Which Potency did it give?
Answer: Its Potency is inconclusive: 1.78 µM [inhibitor, full curve].

Question: `CN(C)c1ccc(/C=C2/C[N+](C)(C)C/C(=C/c3ccc(N(C)C)cc3)C2=O)cc1` was tested. Which Potency did it give?
Answer: The Potency was inconclusive: 31.6 µM [inhibitor, partial curve].

Question: `CN(CC(=O)N1CCN(c2cccc(Cl)c2)CC1)S(=O)(=O)c1cccs1` was tested. Which Potency did it give?
Answer: Its Potency is inconclusive: 50.1 µM [inhibitor, partial curve, poor fit].

Question: For `CCn1c2ccccc2c2cc(C#N)c(N)nc21`, which Potency is on record?
Answer: The Potency was “inactive”.

Question: `C(=N\Nc1nc(-c2ccccc2)cs1)/c1ccncc1` was tested. Which Potency did it give?
Answer: Its Potency is “inactive”.

Question: How did the Potency turn out when `O=C(c1ccc(Cl)cc1)[C@@H]1[C@@H]2C(=O)N(c3cccc4ccccc34)C(=O)[C@@H]2C2c3ccccc3C=NN21` (some centres undefined) was run?
Answer: The Potency was “inactive”.

Question: For `C=CCSc1nc2ccccc2n1C(=O)/C=C/c1cc(OC)c(OC)c(OC)c1`, which Potency is on record?
Answer: The Potency was “inactive”.

Question: With `Cc1ccc(Cn2nnc3c(=O)n(Cc4cc(C)ccc4C)cnc32)cc1` as the molecule, how does the Potency read?
Answer: Its Potency is inconclusive: 3.55 µM [inhibitor, partial curve].

Question: With `CCc1cc(C(=O)O)c(NC(=O)/C=C/c2ccc(OC)c(OC)c2)s1` as the molecule, how does the Potency read?
Answer: The Potency was inconclusive: 3.55 µM [inhibitor, full curve].

Question: For `CCc1ccc(NC(=O)CN2CCC(C(=O)c3ccc(OC)cc3)CC2)cc1`, which Potency is on record?
Answer: Its Potency is inconclusive: 28.2 µM [inhibitor, single point].

Question: `COc1cc2cc(CNc3ccccc3)c(=O)n(CC(=O)Nc3cccc(Cl)c3C)c2cc1OC` was tested. Which Potency did it give?
Answer: The Potency was inconclusive: 31.6 µM [inhibitor, partial curve].

Question: How did the Potency turn out when `N=C1/C(=C/c2ccc(-c3cccc(C(=O)O)c3)o2)C(=O)N=C2SC(CC(=O)N3CCOCC3)=NN12` was run?
Answer: Its Potency is “inactive”.

Question: `CCC(Sc1nc(N)c(NC(=O)c2ccc(OC)cc2)c(=O)[nH]1)C(=O)O` (centres undefined) was tested. Which activity change, negative = inhibition did it give?
Answer: Its activity change, negative = inhibition is inconclusive: -12.7% [inhibitor].

Question: Which Potency does the source give for `Cc1ccc(CNC(=O)CSc2ncc3c(n2)-c2cc(Cl)ccc2N(C)S3(=O)=O)cc1` here?
Answer: Its Potency is “inactive”.

Question: With `CCCS(=O)(=O)N1CCN(C2CCC(C)CC2)CC1` (centres undefined) as the molecule, how does the Potency read?
Answer: The Potency was inconclusive: 5.01 µM [inhibitor, partial curve, poor fit].

Question: `COc1cc(O)c(C(CC(=O)N2CCN(c3ccccc3)CC2)c2ccc3c(c2)OCO3)c(OC)c1` (centres undefined) was tested. Which Potency did it give?
Answer: Its Potency is inconclusive: 3.98 µM [inhibitor, full curve, poor fit].

Question: Which Potency does the source give for `CC(=O)Nc1ccc2c(c1)nc(CCNC(=O)c1ccccc1)n2C` here?
Answer: The Potency was “inactive”.

Question: Which Potency does the source give for `CC(C)(O)C#Cc1ccc(CN2CCCC(CO)(Cc3cccc(Cl)c3)C2)cc1` (centres undefined) here?
Answer: The Potency was inconclusive: 14.1 µM [inhibitor, partial curve].

Question: With `Nc1nonc1NC(=O)CSc1nc2ccccc2s1` as the molecule, how does the Potency read?
Answer: Its Potency is “inactive”.

Question: How did the Potency turn out when `COc1cccc(CN(C)C(=O)c2ccc(Cl)c(S(=O)(=O)N3CCCCCC3)c2)c1OC` was run?
Answer: Its Potency is “inactive”.

Question: For `CCCCNC(=O)c1onc(CSc2ccc(Cl)cc2)c1C(=O)O`, which Potency is on record?
Answer: Its Potency is inconclusive: 17.8 µM [inhibitor, partial curve, poor fit].

Question: `CCc1ccccc1NC(=O)CN(C)C(=O)Cn1ncc(Cl)c(Cl)c1=O` was tested. Which Potency did it give?
Answer: The Potency was “inactive”.

Question: How did the Potency turn out when `COc1cccc(OCCn2cc(/C=N/NC(=O)c3ccncc3)c3ccccc32)c1` was run?
Answer: Its Potency is “inactive”.

Question: Which Potency does the source give for `COc1ccc(/C=N/Nc2cc(N(C)C)nc(N(C)C)n2)cc1` here?
Answer: The Potency was inconclusive: 35.5 µM [inhibitor, partial curve].

Question: `O=C(COC(=O)c1ccc(NS(=O)(=O)c2cccs2)cc1)Nc1nc2c(F)c(F)c(F)cc2s1` was tested. Which Potency did it give?
Answer: The Potency was inconclusive: 6.31 µM [inhibitor, full curve, poor fit].

Question: Which Potency does the source give for `Cc1nnc(NC(=O)CSc2nc3ccccc3o2)s1` here?
Answer: Its Potency is inconclusive: 0.562 µM [inhibitor, full curve, poor fit].

Question: For `COCCc1nn2c(=O)cc(COC(=O)C(c3ccccc3)c3ccccc3)nc2s1`, which Potency is on record?
Answer: Its Potency is “inactive”.

Question: For `CCOC(=O)c1nnc(-c2ccc(C)cc2)nc1Sc1ccc(Cl)cc1`, which Potency is on record?
Answer: The Potency was “inactive”.

Question: Which Potency does the source give for `O=C(O)C(c1ccccc1)N1C(=O)/C(=C\c2ccc(-c3ccccc3Cl)o2)SC1=S` (centres undefined) here?
Answer: Its Potency is inconclusive: 2.82 µM [inhibitor, partial curve].

Question: How did the Potency turn out when `CC(C)C[C@H](NC(=O)c1nc[nH]c1C(=O)N1CCC(C)CC1)C(=O)OCc1ccccc1` was run?
Answer: Its Potency is inconclusive: 39.8 µM [inhibitor, partial curve, poor fit].

Question: Which Potency does the source give for `COC/C=C/C1=CC2=CC(=O)C(C)(OC(=O)c3cnc4ccccc4n3)C(=O)C2=CN1CCCCO` (centres undefined) here?
Answer: Its Potency is inconclusive: 31.6 µM [inhibitor, partial curve].

Question: How did the Potency turn out when `COc1ccc(C)cc1NC(=O)C(=O)NCC(c1cccnc1)N1CCc2ccccc21` (centres undefined) was run?
Answer: Its Potency is inconclusive: 35.5 µM [inhibitor, partial curve].

Question: How did the Potency turn out when `Cc1cccc(C(C(=O)NC2CCCC2)N(C(=O)c2csnn2)C2CC2)c1` (centres undefined) was run?
Answer: Its Potency is inconclusive: 28.2 µM [inhibitor, partial curve].

Question: How did the Potency turn out when `Cc1cc(SCc2ccc([N+](=O)[O-])cc2)nc(=O)[nH]1` was run?
Answer: The Potency was “inactive”.

Question: `CCCC(=O)NC1=C(Cl)C(=O)c2ccccc2C1=O` was tested. Which Potency did it give?
Answer: Its Potency is active: 17.8 µM.

Question: With `CC(C)OC(=O)c1cccc(NC(=O)Cn2nnc3sc4c(c3c2=O)CCCC4)c1` as the molecule, how does the Potency read?
Answer: Its Potency is inconclusive: 4.47 µM [inhibitor, partial curve].

Question: With `CCCCn1c(C2CCCCC2)nc2cc3[nH]c(=O)c(C(C)C)nc3cc21` as the molecule, how does the Potency read?
Answer: The Potency was inconclusive: 44.7 µM [inhibitor, partial curve, poor fit].

Question: `COc1ccc([C@H]2CC(=O)C=C(c3cc(Cl)ccc3OC)C2)cc1` was tested. Which Potency did it give?
Answer: Its Potency is inconclusive: 89.1 µM [inhibitor, partial curve, poor fit].

Question: For `CN(c1ccccc1)S(=O)(=O)c1cccc(C(=O)Nc2ccc3c(c2)CCC3)c1`, which Potency is on record?
Answer: The Potency was inconclusive: 20 µM [inhibitor, partial curve, poor fit].

Question: For `COc1ccccc1CNC(=O)c1c[nH]c2ccc(S(=O)(=O)Nc3cc(C)cc(C)c3)cc2c1=O`, which Potency is on record?
Answer: Its Potency is inconclusive: 0.794 µM [inhibitor, full curve].

Question: How did the Potency turn out when `Cc1nc(Nc2cnc(/C=C/c3cc(C(=O)Nc4cccc(C(F)(F)F)c4)ccc3C)cn2)cc(N2CCNCC2)n1` was run?
Answer: Its Potency is inconclusive: 35.5 µM [inhibitor, partial curve, poor fit].

Question: `COc1cccc(Cn2nnc(C(=O)NCc3ccc(F)cc3)c2N)c1` was tested. Which Potency did it give?
Answer: The Potency was inconclusive: 0.251 µM [inhibitor, partial curve, poor fit].

Question: How did the Potency turn out when `Cc1c(Cl)cccc1-n1ncc(C(=O)N2CCN(c3ncccn3)CC2)c1C1CCN(C(=O)OC(C)(C)C)CC1` was run?
Answer: Its Potency is inconclusive: 5.62 µM [inhibitor, partial curve].

Question: For `Cc1c(C#N)c(O)[nH]c(=O)c1N=Nc1ccc(S(N)(=O)=O)cc1`, which Potency is on record?
Answer: Its Potency is inconclusive: 39.8 µM [inhibitor, partial curve, poor fit].

Question: How did the Potency turn out when `CN(C)c1ccc(/C=C(\NC(=O)c2ccccc2)C(=O)N/N=C/c2ccc(C(=O)O)cc2)cc1` was run?
Answer: The Potency was inconclusive: 3.98 µM [inhibitor, partial curve].

Question: For `CC1=C(C(=O)Nc2cc(Cl)ccc2C)C(c2cccs2)n2ncnc2N1` (centres undefined), which Potency is on record?
Answer: The Potency was inconclusive: 44.7 µM [inhibitor, partial curve].

Question: How did the Potency turn out when `Cc1cc(C(=O)NCc2ccccc2Cl)n(-c2ccccc2)n1` was run?
Answer: The Potency was “inactive”.

Question: For `Cc1cccc(NC(=O)C(=O)NCCc2csc(-c3ccc(F)cc3)n2)c1C`, which Potency is on record?
Answer: Its Potency is inconclusive: 89.1 µM [inhibitor, partial curve, poor fit].

Question: How did the Potency turn out when `CCN1CCN(c2cc(C)c3cc(NC(=O)c4ccncc4)ccc3n2)CC1` was run?
Answer: Its Potency is “inactive”.

Question: Which Potency does the source give for `N=c1c2c(n(Cc3ccc(Cl)c(Cl)c3)c3c1CCC3)CCCC2` here?
Answer: The Potency was “inactive”.

Question: For `O=S(=O)(NCc1ccc(F)cc1)c1cc(Br)ccc1Br`, which Potency is on record?
Answer: Its Potency is inconclusive: 2.24 µM [inhibitor, full curve].

Question: `COc1ccc(NC(=S)NNc2ccc(S(=O)(=O)Nc3ccccc3C(=O)O)cc2[N+](=O)[O-])cc1` was tested. Which Potency did it give?
Answer: Its Potency is inconclusive: 31.6 µM [inhibitor, partial curve].

Question: Which Potency does the source give for `CCC(c1nnc(SCC(=O)Nc2ccc(NC(C)=O)cc2)n1Cc1ccccc1)N(C)C` (centres undefined) here?
Answer: Its Potency is “inactive”.

Question: How did the Potency turn out when `Cc1ccc(CNC(=O)C(=O)NCC(c2ccco2)S(=O)(=O)c2ccccc2)cc1` (centres undefined) was run?
Answer: Its Potency is “inactive”.

Question: For `NC(=O)COC(=O)c1cc(=O)[nH]c2ccc(S(=O)(=O)Nc3ccc(F)cc3)cc12`, which Potency is on record?
Answer: Its Potency is inconclusive: 39.8 µM [inhibitor, single point].

Question: How did the Potency turn out when `O=C(O)c1cc2ccccc2[nH]1` was run?
Answer: Its Potency is inconclusive: 44.7 µM [inhibitor, partial curve, poor fit].

Question: How did the Potency turn out when `Nc1nc2ccc(S(=O)(=O)N3CCCCC3)cc2s1` was run?
Answer: Its Potency is inconclusive: 1.41 µM [inhibitor, full curve, poor fit].

Question: Which Potency does the source give for `CCN(CC)S(=O)(=O)c1ccc(N2CCOCC2)c(NC(=S)NC(=O)c2ccco2)c1` here?
Answer: The Potency was inconclusive: 31.6 µM [inhibitor, partial curve].

Question: With `Cc1ccc(N(C(=O)c2csnn2)C(C(=O)NC2CCCC2)c2ccccn2)c(C)c1` (centres undefined) as the molecule, how does the Potency read?
Answer: The Potency was “inactive”.

Question: With `COc1ccc(NCC(=O)Nc2ccc(Cl)cc2C)c(OC)c1` as the molecule, how does the Potency read?
Answer: Its Potency is inconclusive: 39.8 µM [inhibitor, single point].

Question: `CCOc1ccc2nc(N3CCOCC3)nc(C)c2c1` was tested. Which Potency did it give?
Answer: The Potency was inconclusive: 89.1 µM [inhibitor, partial curve, poor fit].

Question: Which Potency does the source give for `CN1C(=O)C(N=Nc2ccccc2C(=O)O)N(C)C1=S` (centres undefined) here?
Answer: Its Potency is inconclusive: 10 µM [inhibitor, partial curve].

Question: With `O=C(NCc1ccccc1F)c1ccc(CSc2nc3cccnc3n2Cc2ccccc2)cc1` as the molecule, how does the Potency read?
Answer: The Potency was inconclusive: 2.24 µM [inhibitor, full curve, poor fit].
